## Library screen at single concentrations

Measurements from “University of Dundee, Small-Polar-MMV Screening Library” (2021), ChEMBL document CHEMBL3988442.

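Assay of Toxoplasma gondii numbers, read through their beta-galactosidase reporter with a colour substrate. Compounds at 10 µM. The record gives no direction; the compounds picked for IC50 retests had high values, so higher reads as fewer parasites. Of about 67,000 compounds tested this way, about 260 (0.38%) reached 50% or more in at least one test.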

Each number is a percent effect as filed.
The record does not define 0% and 100%; most values in the screen are far below 50% and negative numbers occur (in some assays of this library far below -100).
The compounds are a random part of those screened.

Compound | Percent Effect
CCN(Cc1ccncc1)CC1(O)CCN(C(=O)c2cccc(C)c2)C1 (stereo unspecified) | 5.969
COc1cccc(-c2noc3c2CN(c2nc(C)ncc2C)CC3)c1 | -1.509
[H][C@@]12COC[C@]1(c1nc(C)no1)CN(C(=O)COCC)C2 | -6.877
CC(C)c1nccn1C1CCCN(C(=O)c2ccnc(N(C)C)c2)C1 (stereo unspecified) | -12.34
Cc1cccc(C)c1CN1C(=O)CC2(CCSC2)C1=O (stereo unspecified) | 5.959
CCCn1c(C)c(CC(=O)NCCNC(C)=O)c2c1CC(C)(C)CC2=O | -23.09
CC(C)N(CCO)C(=O)C1CCC(=O)N(CCc2cccc(F)c2)C1 (stereo unspecified) | 10.47
CCS(=O)(=O)NCC(=O)N1CC2(CCCC2)c2c(F)cccc21 | 5.137
Cc1nc(CNC(=O)NCC(O)c2ccc(F)cc2F)cs1 (stereo unspecified) | 1.891
O=C(O)C(F)(F)F.O=C(O)C(F)(F)F.[H][C@@]12COC[C@]1([H])[C@@H](OCc1cccnc1)CN2Cc1ccco1 | -41.85
CCOC(=O)N(C)CC(=O)NCCc1coc(-c2ccc(C)cc2)n1 | 7.573
Fc1ccc2c(c1)CCC2NCc1ccc(N2CCOCC2)cc1 (stereo unspecified) | -22.23
O=C(NS(=O)(=O)c1cccc(F)c1)c1ccccc1F | 3.808
CN(Cc1ncc(-c2ccccc2)o1)CC1CCCN1c1cccnn1 (stereo unspecified) | 12.34
FC(F)(F)Cc1noc(CN2CCCC2c2noc(C3CC3)n2)n1 (stereo unspecified) | 9.937
COCCc1noc(CN2CCCCC2Cn2cncn2)n1 (stereo unspecified) | 3.078
CC1=CCN(S(=O)(=O)c2cccc(C(=O)N3CCCN(C)CC3)c2)CC1 | 3.488
Cl.Cn1nc(C2CCCN(Cc3cc(F)cc(F)c3)C2)c2nccnc21 (stereo unspecified) | -30.72
CC(C)n1[nH]c(=O)c2c1NC(=O)CC2C1CCCCC1 (stereo unspecified) | -9.339
CN(C)Cc1nnc2n1CCN(Cc1ccccn1)CC2 | 1.843
Clc1ccc2oc(C3CCN(Cc4nc(C5CC5)no4)CC3)nc2c1 | 14.35
COc1ccccc1C(=O)Nc1c(F)c(C(=O)N2CCCC2)nn1C | -0.801
Cc1nc(Oc2ccccc2F)sc1C(=O)O | -5.586
NC(=O)CN1CCCN(C(=O)Cc2ccc(Br)cc2)CC1 | 6.075
Cc1ccc(-c2noc(C(O)CC(C)C)n2)nn1 (stereo unspecified) | 15.69
CO[C@@H]1CCN(Cc2ccoc2)C[C@@H]1Cc1ccccc1.O=C(O)C(F)(F)F | -13.81
CCN1CC2(CCC1=O)CCN(C(=O)c1cn3cccnc3n1)CC2 | 11.57
CSCCC1c2nc[nH]c2CCN1Cc1cc(Cl)ccc1O (stereo unspecified) | 40.42
CN(CC(=O)N1CCCC1Cn1cccn1)Cc1ccccc1 (stereo unspecified) | 5.945
CCS(=O)(=O)c1ccccc1N1CCC(NC2CCCC2)CC1 | 9.285
Cl.[H][C@@]12CCN(Cc3cccs3)C[C@]1([H])[C@@H](c1ccsc1)CN2C(=O)C(C)(C)C | -3.202
COc1cccc2c1ccn2CCC(=O)Nc1c2c(nn1C)CSC2 | 9.944
O=C(NCCNc1ccccn1)N1CCSCC1 | 1.206
Cc1nn2c(NC(=O)CSc3nccn3C)csc2nc1=O | 3.908
Cc1ccc(CN2CCN(Cc3cc(C)n[nH]3)CC2CCO)cc1 (stereo unspecified) | 3.87
CC(NC(=O)c1ccoc1)C(=O)N(C)Cc1ccc(O)cc1 (stereo unspecified) | -2.021
CN1Cc2cc(F)ccc2N(CC(C)(C)O)CCC1=O | -7.745
O=C(CCC(=O)N1CCC(c2noc3cc(F)ccc23)CC1)NC1CC1 | 2.719
COCc1nc2cc(NCc3scnc3C)ccc2o1 | -0.4823
CCOC(=O)CCCNC(=O)CN1CCN(c2ncccn2)CC1 | 10.39
Cc1cccc(Nc2c(C#N)c(=O)n(C)c(=O)n2C)c1 | -2.725
CNC(=O)c1nc(CN2CCOC(Cc3ccc(F)cc3)C2)no1 (stereo unspecified) | -3.996
c1cnn(CC2CN(c3ncnc4[nH]ccc34)CCO2)c1 (stereo unspecified) | 17.55
O=C(NCCN1CCCCC1)c1ccoc1 | -2.225
[H][C@@]12CCN(C(=O)c3c(C)noc3C)C[C@@]1([H])O[C@@H](c1ccnc(C)n1)C2 | 3.151
[H][C@@]12CCCO[C@]1([H])[C@H](Oc1cccnc1)CN2C(=O)c1cscn1 | 21.49
Cc1nnc2n1CCN(C(=O)c1cc(Br)c(Cl)[nH]1)C2 | 0.773
CC(C)N(Cc1ccc(C(F)(F)F)nc1)Cc1cnn(C)c1 | -14.27
CC(C)Cn1cncc1CNC(=O)c1cccc(Cn2cccn2)c1 | -3.845
O=C(O)C(F)(F)F.[H][C@@]12COC[C@@H](CC(=O)N3CCCC3)[C@]1([H])CN(Cc1ccc(OC)cc1)C2 | 0.2876
NC(=O)C1CN(c2ccc(Br)cn2)CCO1 (stereo unspecified) | 3.239
O=C(O)C(F)(F)F.[H][C@@]12CCC(CNC(=O)c3ccco3)[C@@]1([H])OCCN2Cc1cccs1 (stereo partly specified) | -5.036
Nc1nc2nc(C3CCCN(C(=O)c4cnccn4)C3)ccc2s1 (stereo unspecified) | -4.451
O=C(NCCn1cnnc1C1CC1)c1c(O)cc(F)cc1F | -25.95
N#Cc1cccnc1Nc1ccc(N2CCC(C(N)=O)CC2)cc1 | -27.1
COc1ccccc1OCCNCc1c(C(C)C)nn(C)c1N(C)C | -17.37
O=C(C1COc2ccccc2O1)N1Cc2cnn(CCO)c2C1 (stereo unspecified) | -2.304
COc1cccc2c1OCC(CNC(=O)CSc1nc(N)n[nH]1)C2 (stereo unspecified) | 0.9038
COCCN1CCCC(O)(CN2CCN(c3cc(C)ccn3)CC2)C1=O (stereo unspecified) | -13.27

The first 7 entries again:

- CCN(Cc1ccncc1)CC1(O)CCN(C(=O)c2cccc(C)c2)C1 (stereo unspecified) : 5.969%
- COc1cccc(-c2noc3c2CN(c2nc(C)ncc2C)CC3)c1 : -1.509%
- [H][C@@]12COC[C@]1(c1nc(C)no1)CN(C(=O)COCC)C2 : -6.877%
- CC(C)c1nccn1C1CCCN(C(=O)c2ccnc(N(C)C)c2)C1 (stereo unspecified) : -12.34%
- Cc1cccc(C)c1CN1C(=O)CC2(CCSC2)C1=O (stereo unspecified) : 5.959%
- CCCn1c(C)c(CC(=O)NCCNC(C)=O)c2c1CC(C)(C)CC2=O : -23.09%
- CC(C)N(CCO)C(=O)C1CCC(=O)N(CCc2cccc(F)c2)C1 (stereo unspecified) : 10.47%